From doi:10.1101/2025.10.15.682725 come the findings set out here.

This experiment concerns the target T1, MA-EcMurJ(2-511)-3xFLAG (E. coli lipid II flippase MurJ) (E. coli (JCM20135)) (UniProt P0AF16).
T1 sequence: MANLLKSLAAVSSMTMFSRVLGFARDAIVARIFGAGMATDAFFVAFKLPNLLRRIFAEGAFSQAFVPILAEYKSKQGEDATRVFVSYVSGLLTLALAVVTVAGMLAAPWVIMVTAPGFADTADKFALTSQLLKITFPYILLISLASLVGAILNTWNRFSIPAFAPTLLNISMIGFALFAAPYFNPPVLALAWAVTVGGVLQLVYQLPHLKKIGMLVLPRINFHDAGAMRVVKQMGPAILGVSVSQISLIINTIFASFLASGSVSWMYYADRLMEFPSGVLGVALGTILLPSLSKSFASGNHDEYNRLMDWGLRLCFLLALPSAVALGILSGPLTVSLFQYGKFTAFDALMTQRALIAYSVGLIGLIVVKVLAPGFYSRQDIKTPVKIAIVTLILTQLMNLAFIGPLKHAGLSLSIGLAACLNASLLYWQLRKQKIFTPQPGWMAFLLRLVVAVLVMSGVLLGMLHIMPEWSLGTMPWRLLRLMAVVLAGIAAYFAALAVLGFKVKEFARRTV
Briefly: cryo-EM structure.

Results are given in words; binding and its absence hold for the method and conditions named. In cells and extracts the contact can be indirect. Binding calls can cover weak binding; strength is not graded here. Where a sequence is shown, tags or fusion partners need not be part of it.

On to “His10-Sgl^PP7 (single-gene lysis protein of Pseudomonas aeruginosa phage PP7)”, for which the binding result is listed as “binds”.
